Experiment [1] concerns the target T1, EDEM1 wild type (mouse), HA-tagged (mouse) (UniProt Q925U4).
T1 sequence: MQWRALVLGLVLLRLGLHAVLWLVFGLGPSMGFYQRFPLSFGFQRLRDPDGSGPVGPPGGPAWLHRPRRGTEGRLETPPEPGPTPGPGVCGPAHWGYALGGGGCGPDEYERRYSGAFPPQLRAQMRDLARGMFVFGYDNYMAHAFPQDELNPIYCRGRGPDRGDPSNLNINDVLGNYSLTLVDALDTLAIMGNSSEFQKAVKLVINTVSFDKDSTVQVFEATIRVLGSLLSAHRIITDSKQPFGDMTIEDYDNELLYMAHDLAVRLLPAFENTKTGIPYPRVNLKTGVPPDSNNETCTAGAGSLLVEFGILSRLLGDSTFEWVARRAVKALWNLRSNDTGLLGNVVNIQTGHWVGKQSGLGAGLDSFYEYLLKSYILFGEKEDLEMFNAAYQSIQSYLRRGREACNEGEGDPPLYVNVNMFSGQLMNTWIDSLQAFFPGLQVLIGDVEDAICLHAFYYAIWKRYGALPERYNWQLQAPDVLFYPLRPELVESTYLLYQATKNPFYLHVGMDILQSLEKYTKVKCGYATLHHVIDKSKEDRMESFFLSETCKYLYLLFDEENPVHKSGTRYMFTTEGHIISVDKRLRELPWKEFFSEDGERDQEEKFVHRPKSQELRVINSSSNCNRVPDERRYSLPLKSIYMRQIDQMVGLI
Put plainly: co-IP; HEK 293T cells co-transfected with tyrosinase and EDEM1 constructs, [35S]-methionine/cysteine pulse 20 or 30 min, chase up to 2 h, lysed in 2% CHAPS, 50 mM Hepes, 200 mM NaCl, pH 7.5; immunoprecipitated with anti-tyrosinase (T311) or anti-EDEM1 (or HA) antibodies, 24 h at 4°C; SDS-PAGE and autoradiography.

The target in experiment [2] is truncated soluble tyrosinase lacking its transmembrane domain. The experiment is described as above.

These are yes or no findings as the source states them, for the method shown. In cells and extracts the contact can be indirect. Binding can be weak; no strength is given. Where a sequence is shown, tags or fusion partners need not be part of it.

Data on 4 molecules can be found in PMC3414498.

Regarding “truncated soluble tyrosinase lacking its transmembrane domain (domain or fragment)”, in experiment [1], the binding result is “binds”.

B1: EDEM1 wild type (mouse), HA-tagged (protein, UniProt Q925U4 1-652)
chain: MQWRALVLGLVLLRLGLHAVLWLVFGLGPSMGFYQRFPLSFGFQRLRDPDGSGPVGPPGGPAWLHRPRRGTEGRLETPPEPGPTPGPGVCGPAHWGYALGGGGCGPDEYERRYSGAFPPQLRAQMRDLARGMFVFGYDNYMAHAFPQDELNPIYCRGRGPDRGDPSNLNINDVLGNYSLTLVDALDTLAIMGNSSEFQKAVKLVINTVSFDKDSTVQVFEATIRVLGSLLSAHRIITDSKQPFGDMTIEDYDNELLYMAHDLAVRLLPAFENTKTGIPYPRVNLKTGVPPDSNNETCTAGAGSLLVEFGILSRLLGDSTFEWVARRAVKALWNLRSNDTGLLGNVVNIQTGHWVGKQSGLGAGLDSFYEYLLKSYILFGEKEDLEMFNAAYQSIQSYLRRGREACNEGEGDPPLYVNVNMFSGQLMNTWIDSLQAFFPGLQVLIGDVEDAICLHAFYYAIWKRYGALPERYNWQLQAPDVLFYPLRPELVESTYLLYQATKNPFYLHVGMDILQSLEKYTKVKCGYATLHHVIDKSKEDRMESFFLSETCKYLYLLFDEENPVHKSGTRYMFTTEGHIISVDKRLRELPWKEFFSEDGERDQEEKFVHRPKSQELRVINSSSNCNRVPDERRYSLPLKSIYMRQIDQMVGLI
Turning to B1, in experiment [2], the binding entry was “binds”.

B2: EDEM1-AVV (mouse EDEM1 triple mutant D365A/E488V/T574V), HA-tagged (protein, UniProt Q925U4 1-652)
chain: MQWRALVLGLVLLRLGLHAVLWLVFGLGPSMGFYQRFPLSFGFQRLRDPDGSGPVGPPGGPAWLHRPRRGTEGRLETPPEPGPTPGPGVCGPAHWGYALGGGGCGPDEYERRYSGAFPPQLRAQMRDLARGMFVFGYDNYMAHAFPQDELNPIYCRGRGPDRGDPSNLNINDVLGNYSLTLVDALDTLAIMGNSSEFQKAVKLVINTVSFDKDSTVQVFEATIRVLGSLLSAHRIITDSKQPFGDMTIEDYDNELLYMAHDLAVRLLPAFENTKTGIPYPRVNLKTGVPPDSNNETCTAGAGSLLVEFGILSRLLGDSTFEWVARRAVKALWNLRSNDTGLLGNVVNIQTGHWVGKQSGLGAGLASFYEYLLKSYILFGEKEDLEMFNAAYQSIQSYLRRGREACNEGEGDPPLYVNVNMFSGQLMNTWIDSLQAFFPGLQVLIGDVEDAICLHAFYYAIWKRYGALPERYNWQLQAPDVLFYPLRPVLVESTYLLYQATKNPFYLHVGMDILQSLEKYTKVKCGYATLHHVIDKSKEDRMESFFLSETCKYLYLLFDEENPVHKSGTRYMFTVEGHIISVDKRLRELPWKEFFSEDGERDQEEKFVHRPKSQELRVINSSSNCNRVPDERRYSLPLKSIYMRQIDQMVGLI
With B2, the binding result in experiment [2] is given as “binds”.

B3: EDEM1-ΔIDR (mouse EDEM1 lacking the ID region, amino acids 48-119), HA-tagged (protein, UniProt Q925U4)
chain: MQWRALVLGLVLLRLGLHAVLWLVFGLGPSMGFYQRFPLSFGFQRLRQLRAQMRDLARGMFVFGYDNYMAHAFPQDELNPIYCRGRGPDRGDPSNLNINDVLGNYSLTLVDALDTLAIMGNSSEFQKAVKLVINTVSFDKDSTVQVFEATIRVLGSLLSAHRIITDSKQPFGDMTIEDYDNELLYMAHDLAVRLLPAFENTKTGIPYPRVNLKTGVPPDSNNETCTAGAGSLLVEFGILSRLLGDSTFEWVARRAVKALWNLRSNDTGLLGNVVNIQTGHWVGKQSGLGAGLDSFYEYLLKSYILFGEKEDLEMFNAAYQSIQSYLRRGREACNEGEGDPPLYVNVNMFSGQLMNTWIDSLQAFFPGLQVLIGDVEDAICLHAFYYAIWKRYGALPERYNWQLQAPDVLFYPLRPELVESTYLLYQATKNPFYLHVGMDILQSLEKYTKVKCGYATLHHVIDKSKEDRMESFFLSETCKYLYLLFDEENPVHKSGTRYMFTTEGHIISVDKRLRELPWKEFFSEDGERDQEEKFVHRPKSQELRVINSSSNCNRVPDERRYSLPLKSIYMRQIDQMVGLI
For B3, the binding entry in experiment [2] is “no binding”.
